For one molecule, binding results are on record in patent EP4818209A2 (Primatope Therapeutics Inc., dated 2026).

No constants are given. Whether binding was seen depends on the method and setting. A result given as binding can be weak or reduced; the word gives no strength.

In this assay the target is baboon CD40 fusion protein (printed 'CD40-NMP fusion') used on the BIACore 3000 (baboon). Kind of assay: BIACore 3000, h2C10 immobilized on a CM5 chip by amine coupling, CD40 fusion as analyte (Figure 16). On the technique in general: SPR reads the build-up and loss of mass on a sensor chip optically.

B1: humanized 2C10 antibody, Clone 2.189.2 (2C10_h3 + 2C10_l2) (antibody, V domains shown)
VH: QVQLVQSGAEVKKPGASVKVSCKASGYTFTNYWMHWVRQAPGQRLEWIGYINPSNDYTKYNQKFKDRATLTADKSANTAYMELSSLRSEDTAVYYCARQGFPYWGQGTLVTVSS
VL: EIVLTQSPATLSLSPGERATLSCSASSSVSYMHWYQQKPGQAPRRWIYDTSKLASGVPARFSGSGSGTDYTLTISSLEPEDFAVYYCHQLSSDPFTFGGGTKVEIK
notes: also called h2C10; mAb 2.189.2
On to B1, for which the binding entry is “binds”.
